Reference: patent US20210220015A1, “COMPOSITIONS AND METHODS FOR ENHANCING SPERM FUNCTION” (OHANA BIOSCIENCES, INC., priority 2018, published 2021)
For at least one compound, name, drawing or mass did not settle the structure.

Test system: human sperm
Assay: Sperm motility and hyperactivation by CASA after starvation and rescue with energy substrates
Type: cell-based
Details: FIG. 2

In the case of `CC(=O)C(=O)O` [pyruvate], the “sperm motility from the starvation state after reintroduction alone” value (after 3 hour starvation) is reported as “no impact” and the “sperm hyperactivation compared to the control” value (sperm starved 3 hour, then rescued, glucose 5 mM, pyruvate 0.33 mM) is reported as “did not improve”.
